Data taken from article PMC3723657.

Chains of the proteins cited; added tags and fusions are not shown. Where a name states a change or a piece, a line headed by the entry shows the natural chain unless it says otherwise. A line that says so, or that is headed by a name, gives the form on record, which may keep a tag or linker.
UniProt P52926: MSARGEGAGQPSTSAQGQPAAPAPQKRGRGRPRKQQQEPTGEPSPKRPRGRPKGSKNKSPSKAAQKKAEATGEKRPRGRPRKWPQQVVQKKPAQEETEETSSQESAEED
XLHMGA2betaa (Xenopus laevis), one chain, as listed by the source: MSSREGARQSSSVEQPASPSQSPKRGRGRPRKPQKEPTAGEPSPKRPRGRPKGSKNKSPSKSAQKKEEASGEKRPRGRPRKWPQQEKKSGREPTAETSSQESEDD

Assays:
Assay in all cases: EMSA
[1] = tested on: XHMG-AT-hook1 (HA-XATH1) (Xenopus laevis); settings: 0.1 pmol probe, 2, 4, 6 uL IVT protein; EMSA as previously described (ref 30); protein translated in vitro; protein details: HA
[2] = tested on: XLHMGA2betaa (Xenopus laevis); settings: EMSA as previously described (ref 30); recombinant protein
[3] = tested on: XLHMGA2betaa (HA-XLA2betaa) (Xenopus laevis); settings: 0.1 pmol probe, 2, 4, 6 uL IVT protein; EMSA as previously described (ref 30); protein translated in vitro; protein details: HA
[4] = target: T1, human HMGA1a (human) (UniProt P17096); settings: EMSA as previously described (ref 30); recombinant protein
T1 sequence (looked up, limits assumed): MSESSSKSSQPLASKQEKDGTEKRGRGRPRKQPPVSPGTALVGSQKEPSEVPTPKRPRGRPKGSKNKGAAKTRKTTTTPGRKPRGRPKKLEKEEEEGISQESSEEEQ

[5] = target: hHMGA2 (human) (UniProt P52926); settings: EMSA as previously described (ref 30); recombinant protein

Sequence	binding result [1]	binding result [2]	binding result [3]	binding result [4]	binding result [5]
GACACATTAATCTATAATCAAATAC (double strand) [HCRII]	no binding	binds	binds	binds	binds
GAAAGTGGAAATTCCTCTGAATAGAGAG (double strand) [NRDI]		binds		binds	binds
AGAAAAACTCCATCTAAAAAAAAAAAAAAAAAAAAAAAAAAACA (double strand) [E3]	no binding	binds	binds	binds	binds

For at least one entry, the source does not settle the construct or the ends of the probe. For some of these results: Negatives hold for the conditions tested. For some of these results: At least one verdict was read from the data and is not stated in words by the source. For some of these results: Protein sequences can lack the tags named with them.
